Source: the supplement of paper PMC10849652
The list shows a part of the results.

Sequences of proteins named here, by UniProt entry; tags and fusion partners are left off. A change or cut given only in a name is not applied to a line headed by its entry.
UniProt P62136, whole entry, looked up: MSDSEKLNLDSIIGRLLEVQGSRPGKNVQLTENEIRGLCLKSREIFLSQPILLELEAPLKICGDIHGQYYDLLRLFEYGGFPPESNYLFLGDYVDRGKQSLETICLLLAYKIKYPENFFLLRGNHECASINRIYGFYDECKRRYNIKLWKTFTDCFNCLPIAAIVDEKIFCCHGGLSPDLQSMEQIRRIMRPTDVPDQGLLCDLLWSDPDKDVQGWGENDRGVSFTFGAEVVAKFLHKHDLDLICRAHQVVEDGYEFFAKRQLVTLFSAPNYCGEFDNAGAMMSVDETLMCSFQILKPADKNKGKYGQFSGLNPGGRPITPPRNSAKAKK
UniProt Q9BSG0: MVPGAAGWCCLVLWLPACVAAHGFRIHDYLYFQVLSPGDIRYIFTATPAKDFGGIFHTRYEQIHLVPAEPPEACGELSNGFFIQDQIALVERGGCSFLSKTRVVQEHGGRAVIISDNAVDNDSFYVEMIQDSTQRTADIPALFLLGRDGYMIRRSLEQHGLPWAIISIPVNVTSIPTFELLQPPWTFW
UniProt O94806: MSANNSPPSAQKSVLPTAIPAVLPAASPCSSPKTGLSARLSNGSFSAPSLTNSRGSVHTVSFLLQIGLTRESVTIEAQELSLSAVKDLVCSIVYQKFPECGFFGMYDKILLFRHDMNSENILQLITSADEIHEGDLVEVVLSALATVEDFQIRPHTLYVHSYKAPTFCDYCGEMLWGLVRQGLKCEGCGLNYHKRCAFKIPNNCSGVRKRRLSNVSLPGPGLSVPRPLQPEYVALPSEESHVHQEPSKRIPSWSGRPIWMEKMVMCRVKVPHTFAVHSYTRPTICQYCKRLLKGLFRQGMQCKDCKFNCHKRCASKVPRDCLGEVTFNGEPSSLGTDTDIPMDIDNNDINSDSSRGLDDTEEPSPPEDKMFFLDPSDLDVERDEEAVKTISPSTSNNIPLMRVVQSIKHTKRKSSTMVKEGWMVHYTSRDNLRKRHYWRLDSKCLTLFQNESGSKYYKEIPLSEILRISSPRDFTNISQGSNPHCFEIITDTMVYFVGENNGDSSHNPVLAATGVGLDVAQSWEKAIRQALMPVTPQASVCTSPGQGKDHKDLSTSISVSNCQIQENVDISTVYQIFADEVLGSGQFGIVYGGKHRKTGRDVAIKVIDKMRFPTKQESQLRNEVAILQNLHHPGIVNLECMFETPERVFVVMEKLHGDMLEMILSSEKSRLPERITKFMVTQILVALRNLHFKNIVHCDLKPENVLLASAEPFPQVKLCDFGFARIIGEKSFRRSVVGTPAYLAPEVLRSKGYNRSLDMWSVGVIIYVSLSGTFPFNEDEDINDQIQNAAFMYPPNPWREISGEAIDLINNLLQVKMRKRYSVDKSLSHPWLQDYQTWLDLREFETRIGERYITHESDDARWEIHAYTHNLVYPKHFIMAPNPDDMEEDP
UniProt P79522: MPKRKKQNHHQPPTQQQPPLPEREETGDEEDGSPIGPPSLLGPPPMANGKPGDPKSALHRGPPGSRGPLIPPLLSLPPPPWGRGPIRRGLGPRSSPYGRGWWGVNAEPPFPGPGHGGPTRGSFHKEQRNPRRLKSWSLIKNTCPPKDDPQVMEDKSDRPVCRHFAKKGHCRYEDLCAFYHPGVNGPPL

Tests used:
Assay in all cases: log2 fold change, soluble protein after heating vs DMSO (PISA); higher = thermal stabilisation; K562 cells, 10 uM, 30 min; active = over 0.2 and 3.5 SD of the protein, either way, in both replicates (recomputed)
[1] = compound: COC1=CC=C(C=C1)CN2C=CC3=C2C=C(C=C3)C(=O)NO
Outline: (§1)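 Quantification of soluble protein used TMTpro 16plex LC-MS/MS, with channel sums equalised. Samples were the supernatant after 21,000xg for 90 min of pooled aliquots from K562 cells (2×10^6 cells/mL) treated with 10 μM compound for 30 min, heated for 3 min over 48°C-58°C, and extracted in PBS with 0.5% NP-40 at 4°C. Values, from duplicates, describe thermal stability against control samples on a log2 fold-change scale.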

filanesib = compound: CON(C)C(=O)N1N=C(c2cc(F)ccc2F)S[C@@]1(CCCN)c1ccccc1 [filanesib]
Outline: as §1

zotarolimus = compound: CO[C@H]1C[C@@H]2CC[C@@H](C)[C@@](O)(O2)C(=O)C(=O)N2CCCC[C@H]2C(=O)O[C@H]([C@H](C)C[C@@H]2CC[C@H](n3cnnn3)[C@H](OC)C2)CC(=O)[C@H](C)/C=C(\C)[C@@H](O)[C@@H](OC)C(=O)[C@H](C)C[C@H](C)/C=C/C=C/C=C/1C [zotarolimus]
Outline: as §1

idasanutlin = compound: COc1cc(C(=O)O)ccc1NC(=O)[C@@H]1N[C@@H](CC(C)(C)C)[C@](C#N)(c2ccc(Cl)cc2F)[C@H]1c1cccc(Cl)c1F [idasanutlin]
Outline: as §1

alisertib = compound: COc1cc(Nc2ncc3c(n2)-c2ccc(Cl)cc2C(c2c(F)cccc2OC)=NC3)ccc1C(=O)O [alisertib]
Outline: as §1

[2] = compound: COc1cc2nc(-c3cc(F)ccc3O)nc(N[C@@H]3CNC[C@H]3C(C)(C)O)c2cc1OC
Outline: as §1

gefitinib = compound: COc1cc2ncnc(Nc3ccc(F)c(Cl)c3)c2cc1OCCCN1CCOCC1 [gefitinib]
Outline: as §1

[3] = compound: COc1cccc2cc(-c3nc([C@H]4CC[C@H](C(=O)O)CC4)n4ncnc(N)c34)[nH]c12
Outline: as §1

lapatinib = compound: CS(=O)(=O)CCNCc1ccc(-c2ccc3ncnc(Nc4ccc(OCc5cccc(F)c5)c(Cl)c4)c3c2)o1 [lapatinib]
Outline: as §1

pictilisib = compound: CS(=O)(=O)N1CCN(Cc2cc3nc(-c4cccc5[nH]ncc45)nc(N4CCOCC4)c3s2)CC1 [pictilisib]
Outline: as §1

[4] = compound: CS(=O)(=O)c1ccc(-c2cnc(N)c(C(=O)Nc3ccccc3)n2)cc1
Outline: as §1

crizotinib = compound: C[C@@H](Oc1cc(-c2cnn(C3CCNCC3)c2)cnc1N)c1c(Cl)ccc(F)c1Cl [crizotinib]
Outline: as §1

[5] = compound: C[C@@H]1COCCN1C2=NC(=NC(=C2)C3(CC3)S(=O)(=O)C)C4=C5C=CNC5=CC=C4
Outline: as §1

[6] = compound: C[C@H](C1=CC=C(C=C1)C(=O)NC2=C3C=CNC3=NC=C2)N
Outline: as §1

gandotinib = compound: Cc1cc(Nc2cc(CN3CCOCC3)c3nc(C)c(Cc4ccc(Cl)cc4F)n3n2)n[nH]1 [gandotinib]
Outline: as §1

[7] = compound: Cc1cc(SCc2sc(-c3ccc(C(F)(F)F)cc3)nc2C)ccc1OCC(=O)O
Outline: as §1

doramapimod = compound: Cc1ccc(-n2nc(C(C)(C)C)cc2NC(=O)Nc2ccc(OCCN3CCOCC3)c3ccccc23)cc1 [doramapimod]
Outline: as §1

ispinesib = compound: Cc1ccc(C(=O)N(CCCN)[C@@H](c2nc3cc(Cl)ccc3c(=O)n2Cc2ccccc2)C(C)C)cc1 [ispinesib]
Outline: as §1

duvelisib = compound: C[C@H](Nc1ncnc2nc[nH]c12)c1cc2cccc(Cl)c2c(=O)n1-c1ccccc1 [duvelisib]
Outline: as §1

tozasertib = compound: Cc1cc(Nc2cc(N3CCN(C)CC3)nc(Sc3ccc(NC(=O)C4CC4)cc3)n2)n[nH]1 [tozasertib]
Outline: as §1

Measured: log2 fold change

PPP1CA (UniProt P62136)
inactive: filanesib 0.012 | zotarolimus -0.032 | idasanutlin 0.016 | alisertib 0.024 | [2] 0.015 | gefitinib 0.032 | [3] 0.023 | lapatinib 0.001 | pictilisib 0.013 | [4] 0.042 | crizotinib 0.042 | [5] 0.013 | [6] -0.069 | gandotinib 0.026 | [7] -0.045 | doramapimod -0.003 | ispinesib 0.083
active: [1] 0.263

PRADC1 (UniProt Q9BSG0)
inactive: [1] 0.003 | filanesib 0.059 | zotarolimus 0.065 | alisertib -0.182 | [3] -0.127 | pictilisib 0.12 | [4] 0.052 | crizotinib -0.024 | [5] -0.055 | [6] -0.216 | duvelisib 0.031 | gandotinib -0.095 | tozasertib 0.066 | [7] -0.076 | doramapimod 0.105

PRKD3 (UniProt O94806)
inactive: [1] -0.062 | filanesib -0.002 | zotarolimus 0.084 | idasanutlin 0.171 | alisertib -0.039 | [3] 0.149 | pictilisib 0.255 | [4] -0.132 | crizotinib -0.292 | [6] -0.189 | gandotinib 0.092 | [7] 0.039 | doramapimod -0.088 | ispinesib -0.237

PRR3 (UniProt P79522)
inactive: [1] -0.069 | filanesib 0.352 | pictilisib -0.103 | [4] 0.033 | crizotinib -0.019 | [5] -0.06 | gandotinib 0.1 | tozasertib -0.059 | doramapimod 0.056

Two neighbouring entries already listed, quoted:
PRKD3 (UniProt O94806)
inactive: [1] -0.062 | filanesib -0.002 | zotarolimus 0.084 | idasanutlin 0.171 | alisertib -0.039 | [3] 0.149 | pictilisib 0.255 | [4] -0.132 | crizotinib -0.292 | [6] -0.189 | gandotinib 0.092 | [7] 0.039 | doramapimod -0.088 | ispinesib -0.237

PRR3 (UniProt P79522)
inactive: [1] -0.069 | filanesib 0.352 | pictilisib -0.103 | [4] 0.033 | crizotinib -0.019 | [5] -0.06 | gandotinib 0.1 | tozasertib -0.059 | doramapimod 0.056
